Whole data set: some 33,000 sequences, median “E-score (-0.5 to 0.5)” near -0.015, cut for the highest 2% near 0.3. The list shows a part of the results.
Molecular target: T1, Abf1 (UniProt P14164)
T1 sequence: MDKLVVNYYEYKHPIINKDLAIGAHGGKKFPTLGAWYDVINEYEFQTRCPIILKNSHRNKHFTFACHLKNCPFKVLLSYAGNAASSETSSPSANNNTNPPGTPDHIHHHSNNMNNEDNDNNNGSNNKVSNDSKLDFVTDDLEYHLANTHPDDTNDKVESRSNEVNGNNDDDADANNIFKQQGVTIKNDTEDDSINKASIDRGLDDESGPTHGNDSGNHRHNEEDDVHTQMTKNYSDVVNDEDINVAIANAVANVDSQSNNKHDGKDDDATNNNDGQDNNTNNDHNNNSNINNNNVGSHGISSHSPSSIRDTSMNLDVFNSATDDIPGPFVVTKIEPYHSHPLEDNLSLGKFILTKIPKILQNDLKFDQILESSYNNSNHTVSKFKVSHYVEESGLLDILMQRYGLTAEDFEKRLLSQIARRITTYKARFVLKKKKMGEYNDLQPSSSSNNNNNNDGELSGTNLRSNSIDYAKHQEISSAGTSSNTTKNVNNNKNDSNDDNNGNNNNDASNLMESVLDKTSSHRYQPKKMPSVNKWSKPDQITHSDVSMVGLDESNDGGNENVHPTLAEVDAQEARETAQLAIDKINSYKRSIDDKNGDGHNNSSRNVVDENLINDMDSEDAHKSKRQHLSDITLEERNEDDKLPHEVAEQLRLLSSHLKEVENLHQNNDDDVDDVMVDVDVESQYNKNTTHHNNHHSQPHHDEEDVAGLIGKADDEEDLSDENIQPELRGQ
Assay: PBM E-score (8-mer binding enrichment) (E-score (-0.5 to 0.5)); higher = stronger / more preferred TF binding
Settings: protein concentration: 200 nM; construct: GST-full length
Procedure, shortened: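 Each ungapped eight-base word and its reverse complement, pooled, received an E-score from the Universal PBM Analysis Suite. Underlying scans, normalised with masliner, recorded fluorescent anti-GST bound to GST-tagged yeast transcription factors. These were applied at about 100-200 nM to universal all-10-mer Agilent arrays double-stranded by primer extension.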

Sequence | PBM E-score
CCGCGAAC | 0.00614
AGAGGAGC | -0.143
ACACCCGC | 0.0446
AAGTATTA | 0.0983
GACCAAAC | 0.0619
TAGTCCGA | -0.0678
GCTCAGCA | 0.0463
CTTACACC | -0.236
AGCCCTAT | -0.105
AAAAACAT | 0.00908
CTTGGACA | -0.0157
ACCCCTAC | -0.271
AATAGGTG | -0.0129
TGAACCCA | -0.00982
CAGTCGCC | -0.148
AGTTTTTA | 0.12
AGGAAGCA | -0.354
AGATTCAT | -0.0293
CGTAGAAA | 0.318
GAAACTTA | 0.115
AGCCGGAT | -0.208
CACAACAA | -0.0597

Sequence | PBM E-score
AATCTGGT | -0.106
CGTACTAC | 0.274
AAACTTTA | 0.0717
CAAGTGGA | -0.104
CCTGAGGA | -0.115
AGTCAGGG | -0.168
AGCCTTGC | 0.047
ACTATGTC | 0.113
ATAGGCTG | -0.0438
GCTTCGAC | -0.0334
ACGTAGGG | -0.148
AGATGGAA | -0.171
AATTTAGT | 0.0496
TGCGGCCA | -0.218
GTGGTTGA | -0.0109
GAGGATCA | -0.0196
CGAGCAGC | -0.0523
CCAAATGG | -0.17
CGGTTCGC | 0.0344
AAGGCGTA | -0.158
GCTAACTA | 0.127
AACGGCGT | 0.227

An excerpt of the results above, for reference:
Sequence | PBM E-score
AAAAACAT | 0.00908
CTTGGACA | -0.0157
ACCCCTAC | -0.271
AATAGGTG | -0.0129
TGAACCCA | -0.00982
CAGTCGCC | -0.148
AGTTTTTA | 0.12
AGGAAGCA | -0.354
AGATTCAT | -0.0293
CGTAGAAA | 0.318
GAAACTTA | 0.115
AGCCGGAT | -0.208
CACAACAA | -0.0597
AATCTGGT | -0.106
CGTACTAC | 0.274
AAACTTTA | 0.0717
CAAGTGGA | -0.104
CCTGAGGA | -0.115
AGTCAGGG | -0.168
AGCCTTGC | 0.047
ACTATGTC | 0.113
ATAGGCTG | -0.0438
GCTTCGAC | -0.0334
ACGTAGGG | -0.148
AGATGGAA | -0.171
AATTTAGT | 0.0496

The list continues:

Sequence | PBM E-score
CGACTTAG | -0.0433
AGTACGAG | 0.00494
ACTAACAT | 0.137
ACCAAACG | -0.129
CTACTGTC | -0.00861
ACTCCAGT | -0.101
GAGTTTAC | -0.131
GCCCTAAA | -0.113
ACTCTTCG | -0.131
GCCCCTTA | -0.138
ATATTACC | 0.122
TGCGCACA | -0.0767
AATTATCG | 0.178
TACTAGTA | 0.0479
GAGGTCCC | -0.0234
ACATAGGA | -0.146
GCTCTCGA | -0.166
CAGCCGCC | -0.193
ACTAGAGC | 0.0446
AATATAGC | -0.0394
AGAAGAAA | 0.0739
GCTAGCAA | -0.0152

Sequence | PBM E-score
CGCGGGGC | -0.226
AATCGGGG | -0.185
GAGTTCGA | 0.117
AGTTTGTA | 0.0486
GAGACCAC | -0.0726
CGATCGGA | -0.164
CCGACTCA | -0.211
CAAGAGTA | 0.0333
ATTTGAAG | -0.0409
GACCTACC | -0.222
ATACCAGC | -0.0695
AGGTTGAT | -0.174
CGTATTCA | 0.165
ATATCGAC | 0.192
CGATTACG | 0.0723
AGCAGATG | -0.0843
CCATTTCA | -0.056
CGCGACTC | -0.0343
TATAGAGA | -0.0405
CGTGACAC | 0.252

— the supplement of paper PMC3334620
